The values below come from the supplement of paper PMC7877785.

The nature of this series: self-splicing fitness, log relative to wild type (ln ratio); higher = more splicing; Tetrahymena group I intron in knt gene, E. coli kanamycin selection, DiMSum; sequences stand for … in CUCUCU…GGAGGGAAAAGUUAUCAGGCAUGCACCUGGUAGCUAGUCUUUAAACCAAUAGAUUGCAUCGGUUUAAAAGGCAAGACCGUCAAAUUGCGGGAAAGGGGUCAACAGCCGUUCAGUACCAAGUCUCAGGGGAAACUUUGAGAUGGCCUUGCAAAGGGUAUGGUAAUAAGCUGACGGACAUGGUCCUAACCACGCAGCCAAGUCCUAAGUCAACAGAUCUUCUGUUGAUAUGGAUGCAGUUCACAGACUAAAUGUCGGUCGGGGAAGAUGUAUUCUUCUCAUAAGAUAUAGUCGGACCUCUCCUUAAUGGGAGCUAGCGGAUGAAGUGAUGCAACACUGGAGCCGCUGGGAACUAAUUUGUAUGCGAAAGUAUAUUGAUUAGUUUUGGAGUACUCGUGGUCG
The essentials: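 A randomised library covering all eight P1ex-region intron nucleotides was built with the intron in the knt kanamycin-resistance gene on pET-22b(+) and held in E. coli BL21(DE3). Cells were grown overnight at 37°C or 30°C on LB agar, with or without 25 μg/mL kanamycin, plus 100 μg/mL carbenicillin, 50 μM IPTG and 0.2% rhamnose, and pooled colonies were amplicon-sequenced on an Illumina HiSeq 2500. DiMSum fitness is the error-weighted combination of wild-type-normalised replicate fold changes, kanamycin versus none.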

± gives the uncertainty stated by the source. Many entries were measured with a wide error.

Regarding GAGGAGCAAUAUUACGGGAU, the “self-splicing fitness (ln)” value (37 °C) is -2.54 ± 1.1. Take UAGGAGCAAUAUUACGGGUC: where the note is “37 °C”, the “self-splicing fitness (ln)” value was -3.81 ± 0.51. Regarding GUAGAGCAAUAUUACGGAUA, the “self-splicing fitness (ln)” value (30 °C) is -3.22 ± 0.61. GCUGAGCAAUAUUACGCCUG: for the setting “37 °C”, the “self-splicing fitness (ln)” value was -2.57 ± 1.1. Take UACUAGCAAUAUUACGAGCU: the “self-splicing fitness (ln)” value (37 °C) was -2.26 ± 0.54. As for CUAAAGCAAUAUUACGCCCA, the “self-splicing fitness (ln)” value (37 °C) is -1.7 ± 0.58. In the case of UUUGAGCAAUAUUACGGAGU, the “self-splicing fitness (ln)” value is, setting by setting: (30 °C) -2.49 ± 0.28; (37 °C) -2.39 ± 0.64.

For the sequence UAAAAGCAAUAUUACGGGCU, the “self-splicing fitness (ln)” value (30 °C) was -2.79 ± 0.23 and the “self-splicing fitness (ln)” value (37 °C) was -2 ± 0.29. For GCAGAGCAAUAUUACGCCAC, the “self-splicing fitness (ln)” value (37 °C) came out at 0.0981 ± 1.2. Same read-out and setting: under CGUGAGCAAUAUUACGACAC stands -2.55 ± 0.76.

On to UGUCAGCAAUAUUACGGCUU, for which the “self-splicing fitness (ln)” value reads like this: (30 °C) -0.428 ± 0.12; (37 °C) -0.319 ± 0.17. On to AGAGAGCAAUAUUACGAGCA, for which the “self-splicing fitness (ln)” value by setting is: (30 °C) -2.68 ± 0.46; (37 °C) -1.31 ± 0.27. For CGGUAGCAAUAUUACGGAAA, for the setting “37 °C”, the “self-splicing fitness (ln)” value was -1.34 ± 0.61. Turning to GUCGAGCAAUAUUACGGAUA, the “self-splicing fitness (ln)” value (30 °C) came out at 0.0717 ± 0.66. With UCCUAGCAAUAUUACGCCCU, the “self-splicing fitness (ln)” value (37 °C) is -0.234 ± 1.4. For the sequence UCCAAGCAAUAUUACGCGGA, the “self-splicing fitness (ln)” value is, setting by setting: (30 °C) -4.26 ± 1; (37 °C) -3.47 ± 0.73. As for UAGUAGCAAUAUUACGUCAC, the “self-splicing fitness (ln)” value by setting is: (30 °C) -4.36 ± 1; (37 °C) -2.28 ± 0.51.

In the case of CUCGAGCAAUAUUACGCAUA, the “self-splicing fitness (ln)” value (37 °C) was -3.16 ± 0.6. For CUAGAGCAAUAUUACGAAGU, under “37 °C”, the “self-splicing fitness (ln)” value is -1.47 ± 0.87.

As to UUAGAGCAAUAUUACGGUGG, the “self-splicing fitness (ln)” value (30 °C) is -1.95 ± 0.12 and the “self-splicing fitness (ln)” value (37 °C) is -0.679 ± 0.13. Consider CCUUAGCAAUAUUACGAAAC, for which the “self-splicing fitness (ln)” value was -2.8 ± 0.59 (30 °C) and -2.14 ± 0.61 (37 °C). The like results for GCAAAGCAAUAUUACGAUCG were, in that order, -1.52 ± 0.067 and -0.0765 ± 0.091.

For the sequence CCAGAGCAAUAUUACGUAAC, the “self-splicing fitness (ln)” value (30 °C) was -3.56 ± 0.37 and the “self-splicing fitness (ln)” value (37 °C) was -1.96 ± 0.32. Regarding UUUAAGCAAUAUUACGUCCC, the “self-splicing fitness (ln)” value (30 °C) was -0.868 ± 1.4. As to AUAUAGCAAUAUUACGCUCU, the “self-splicing fitness (ln)” value is -0.66 ± 0.18 (30 °C) and -0.594 ± 0.18 (37 °C).

For GUUGAGCAAUAUUACGAACG, where the note is “30 °C”, the “self-splicing fitness (ln)” value was -2.87 ± 0.62. For GCUGAGCAAUAUUACGCUGU, for the setting “30 °C”, the “self-splicing fitness (ln)” value was -4.6 ± 0.72. Take GCCGAGCAAUAUUACGCCAA: the “self-splicing fitness (ln)” value (37 °C) is -1.92 ± 0.55. Regarding GAAGAGCAAUAUUACGCCAU, the “self-splicing fitness (ln)” value by setting is: (30 °C) -3.34 ± 0.65; (37 °C) -1.61 ± 0.37. CCGAAGCAAUAUUACGAGAC: the “self-splicing fitness (ln)” value (30 °C) was -5.09 ± 1.

As to GUUGAGCAAUAUUACGUUGC, the “self-splicing fitness (ln)” value (37 °C) was -1.37 ± 0.74. With UUUGAGCAAUAUUACGAGCC, where the note is “30 °C”, the “self-splicing fitness (ln)” value was -1.72 ± 0.73. As to CUUUAGCAAUAUUACGAACA, the “self-splicing fitness (ln)” value (37 °C) is -2.99 ± 0.53. In the case of GCCGAGCAAUAUUACGCGGC, under “30 °C”, the “self-splicing fitness (ln)” value is -5.2 ± 0.51.

With GUCCAGCAAUAUUACGGCUA, the “self-splicing fitness (ln)” value reads like this: (30 °C) -0.25 ± 0.068; (37 °C) 0.143 ± 0.073. As to UUUGAGCAAUAUUACGCCAU, the “self-splicing fitness (ln)” value reads like this: (30 °C) -3.71 ± 0.52; (37 °C) -1.79 ± 1.2. Regarding CUUCAGCAAUAUUACGCCCC, under “30 °C”, the “self-splicing fitness (ln)” value was -2.66 ± 1.1. UUUAAGCAAUAUUACGAGGC: the “self-splicing fitness (ln)” value runs as follows: (30 °C) -3.57 ± 0.53; (37 °C) -0.693 ± 1.4. Regarding UUUUAGCAAUAUUACGUCGC, the “self-splicing fitness (ln)” value runs as follows: (30 °C) -1.01 ± 0.56; (37 °C) -0.927 ± 1.2.

On to GUGGAGCAAUAUUACGCCGC, for which the “self-splicing fitness (ln)” value (37 °C) was -0.624 ± 0.56. In the case of GACGAGCAAUAUUACGCACA, the “self-splicing fitness (ln)” value is -2.32 ± 0.15 (30 °C) and -0.917 ± 0.14 (37 °C).

As to CCUUAGCAAUAUUACGCAGG, the “self-splicing fitness (ln)” value was -4.57 ± 0.52 (30 °C) and -2.72 ± 1.1 (37 °C).

With CGAGAGCAAUAUUACGUCCG, the “self-splicing fitness (ln)” value by setting is: (30 °C) -1.23 ± 0.91; (37 °C) -1.17 ± 0.53.

On to UUUUAGCAAUAUUACGUAUC, for which the “self-splicing fitness (ln)” value (30 °C) is -4.22 ± 0.6. For GGCGAGCAAUAUUACGAUGG, the “self-splicing fitness (ln)” value (37 °C) was 0.254 ± 0.71. On the same count and under the same terms, under CUCGAGCAAUAUUACGGUUU stands -4.58 ± 0.51. CCAGAGCAAUAUUACGCUCU: the “self-splicing fitness (ln)” value was -4.29 ± 1 (30 °C) and -3.11 ± 0.53 (37 °C). GUACAGCAAUAUUACGCCAA: the “self-splicing fitness (ln)” value (30 °C) is -3.41 ± 0.6. With GAGGAGCAAUAUUACGAGCU, the “self-splicing fitness (ln)” value (30 °C) is -0.54 ± 0.76. Regarding GGAGAGCAAUAUUACGAUGA, the “self-splicing fitness (ln)” value (37 °C) was -3.21 ± 1. As to AAGGAGCAAUAUUACGUCAC, the “self-splicing fitness (ln)” value (30 °C) was -3.93 ± 0.74.

Turning to UUGUAGCAAUAUUACGCCGU, the “self-splicing fitness (ln)” value by setting is: (30 °C) -1.96 ± 0.71; (37 °C) -1.67 ± 0.68. Turning to UCGGAGCAAUAUUACGCUUU, the “self-splicing fitness (ln)” value (30 °C) is -4.01 ± 0.53. Consider UUAGAGCAAUAUUACGAGGU, for which the “self-splicing fitness (ln)” value (30 °C) was -3.19 ± 0.53. For the sequence CACGAGCAAUAUUACGCGAC, the “self-splicing fitness (ln)” value (30 °C) is -3.6 ± 0.52.

As for CCACAGCAAUAUUACGAACA, the “self-splicing fitness (ln)” value reads like this: (30 °C) -2.78 ± 0.24; (37 °C) -2.33 ± 0.29. The like results for AAUUAGCAAUAUUACGUCAA were, in that order, -2.11 ± 0.17 and -0.791 ± 0.22.

As for UCUCAGCAAUAUUACGGACC, the “self-splicing fitness (ln)” value (30 °C) is -4.87 ± 1. As for UAAUAGCAAUAUUACGGUAC, the “self-splicing fitness (ln)” value runs as follows: (30 °C) -3.69 ± 0.43; (37 °C) -2.37 ± 0.37. Turning to CGAGAGCAAUAUUACGUAAA, the “self-splicing fitness (ln)” value (30 °C) was -3.52 ± 0.62. CGUGAGCAAUAUUACGCUGC: the “self-splicing fitness (ln)” value (37 °C) was -3.03 ± 0.53. UUUUAGCAAUAUUACGUUAC: the “self-splicing fitness (ln)” value reads like this: (30 °C) -4 ± 0.52; (37 °C) -3.12 ± 0.73. CGCUAGCAAUAUUACGCUGC: the “self-splicing fitness (ln)” value (37 °C) was -3.29 ± 0.52. Regarding CUAAAGCAAUAUUACGACGC, the “self-splicing fitness (ln)” value (30 °C) is -3.72 ± 1. Take GGGUAGCAAUAUUACGUCAG: the “self-splicing fitness (ln)” value (30 °C) is -4.17 ± 0.52. In the case of GUGCAGCAAUAUUACGCCGG, the “self-splicing fitness (ln)” value (37 °C) was -2.05 ± 0.67. Consider AAGGAGCAAUAUUACGAACA, for which the “self-splicing fitness (ln)” value (30 °C) was -3.77 ± 1 and the “self-splicing fitness (ln)” value (37 °C) was -1.69 ± 0.84. The like results for CUCUAGCAAUAUUACGCUCU were, in that order, -3.22 ± 0.19 and -3.77 ± 0.31. Consider CUAUAGCAAUAUUACGUGCC, for which the “self-splicing fitness (ln)” value (37 °C) was -3.86 ± 0.73. For UGGCAGCAAUAUUACGUCGA, the “self-splicing fitness (ln)” value reads like this: (30 °C) -0.694 ± 0.04; (37 °C) 0.401 ± 0.058. The like results for GGAUAGCAAUAUUACGCUUA were, in that order, -1.88 ± 0.18 and -0.532 ± 0.15. Regarding UCCAAGCAAUAUUACGACAA, the “self-splicing fitness (ln)” value was -2.14 ± 0.13 (30 °C) and -1.47 ± 0.1 (37 °C). For CCGGAGCAAUAUUACGACCG, the “self-splicing fitness (ln)” value (37 °C) is -0.333 ± 0.93.

Regarding ACGCAGCAAUAUUACGAAUA, where the note is “30 °C”, the “self-splicing fitness (ln)” value is -4.2 ± 1. UCCGAGCAAUAUUACGAUCC: the “self-splicing fitness (ln)” value (30 °C) was -2.81 ± 1.1. In the case of UCCAAGCAAUAUUACGCACG, the “self-splicing fitness (ln)” value runs as follows: (30 °C) -3.7 ± 0.6; (37 °C) -2.63 ± 0.54.

GGUGAGCAAUAUUACGAACC: the “self-splicing fitness (ln)” value (30 °C) was -4.09 ± 0.55.
